Each structure is given as a SMILES string. Where a name gives a salt, the structure may show the parent alone. This is one part of the list. This data set is noisy: repeats of one test often differ as much as different tests do.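 Test system: Schistosoma mansoni schistosomula, roughly 40 per well, imaged in bright field over time and compared with wells given 0.1% DMSO. Distance read-out: the paper calls a drug a hit when its Mahalanobis distance is at least 2.47, three standard deviations above the DMSO control mean. Degeneracy is the share of worms classified opaque.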

For this test, the system named is Schistosoma mansoni schistosomula. The test can be described thus: Mahalanobis distance of static-rate-frequency phenotype descriptors from DMSO controls (dimensionless); higher = stronger phenotypic change versus DMSO. Particulars: 10 µM; 72 h.
Consider `CN(C)[C@@H]1C(O)=C(C(=O)NCN2CCCC2)C(=O)[C@@]2(O)C(O)=C3C(=O)c4c(O)cccc4[C@@](C)(O)[C@H]3C[C@@H]12` [Rolitetracycline], for which the Mahalanobis distance was inactive: 1.11. As for `CC(C)NC[C@@H](O)COc1cccc2ccccc12` [Dexpropranolol Hydrochloride], the figure is inactive: 1.95; as for `CCc1cn([C@H]2C[C@H](O)[C@@H](CO)O2)c(=O)[nH]c1=O` [Edoxudine], inactive: 2.02; as for `O=S(=O)(O)NC1CCCCC1` [Cyclamic Acid], inactive: 1.28. In the case of `CCN(CC)CCc1nc(-c2ccccc2)no1` [Oxolamine Citrate] it was inactive: 1.7; in that of `O=c1oc2ccccc2c(O)c1Cc1c(O)c2ccccc2oc1=O` [Dicumarol], inactive: 1.88; in that of `COc1c2occc2c(OC)c2c(=O)cc(C)oc12` [Khellin], inactive: 1.16. As for `NCC(O)CC(=O)O` (stereo unspecified) [Aminohydroxybutyric Acid], the figure is active: 4.14; as for `CC(=O)OCC(CCn1cnc2cnc(N)nc21)COC(C)=O` [Famciclovir], inactive: 1.66. In the case of `C[C@H](CCC(=O)O)[C@H]1CC[C@H]2[C@@H]3[C@H](O)C[C@@H]4C[C@H](O)CC[C@]4(C)[C@H]3CC[C@]12C` [Chenodiol], the Mahalanobis distance was active: 2.48. In the case of `CCC(=O)O[C@]1(C(=O)CCl)[C@@H](C)C[C@H]2[C@@H]3CCC4=CC(=O)C=C[C@]4(C)[C@@]3(F)[C@@H](O)C[C@@]21C` [Clobetasol Propionate] it was active: 2.57. In the case of `Cc1c(O)c(=O)ccn1C` [Deferiprone] it was inactive: 1.41.

As to `CC(C)[C@H](N)C(=O)OCC(CO)OCn1cnc2c(=O)nc(N)[nH]c21` (stereo partly specified) [Valganciclovir Hydrochloride], the Mahalanobis distance was active: 2.47. For the compound `NC(=O)c1ccc([N+](=O)[O-])cc1Cl` [Aklomide], the Mahalanobis distance was inactive: 1.79.

Regarding `COc1ccc(C2CNC(=O)C2)cc1OC1CCCC1` (stereo unspecified) [Rolipram], the Mahalanobis distance is inactive: 1.9. With `C[C@H]1C[C@@H]2[C@H]([C@@H](O)C[C@@]3(C)[C@H]2CC[C@]3(O)C(=O)CO)[C@@]2(C)C=CC(=O)C=C12` [Methylprednisolone], the Mahalanobis distance is inactive: 1.71.

Consider `CCCNCC(O)COc1ccccc1C(=O)CCc1ccccc1` (stereo unspecified) [Propafenone], for which the Mahalanobis distance was inactive: 1.93.

On to `CN(C)c1nc(N(C)C)nc(N(C)C)n1` [Altretamine], for which the Mahalanobis distance was inactive: 2.03. As to `CC(C)NCC(O)c1ccc2ccccc2c1` (stereo unspecified) [Pronetalol Hydrochloride], the Mahalanobis distance is inactive: 1.78. As for `CC(=O)O[C@]1(C(C)=O)CC[C@H]2[C@@H]3C[C@H](C)C4=CC(=O)CC[C@]4(C)[C@H]3CC[C@@]21C` [Medroxyprogesterone Acetate], the figure is inactive: 2.4; as for `O=c1cc[nH]c(=S)[nH]1` [2-thiouracil], active: 3.33. As for `CC(=O)OC1CC2CCC1(C)C2(C)C` (stereo unspecified) [Bornyl Acetate], the figure is inactive: 2.3; as for `CC(C)C[C@@H]1NC(=O)[C@H](CCCN)NC(=O)[C@H](C(C)C)NC(=O)[C@H](Cc2ccc(O)cc2)N[C@@H](CCC(=O)O)C(=O)N[C@@H](CC(N)=O)C(=O)[C@@H](Cc2ccccc2)NC(=O)[C@H](Cc2ccccc2)NC(=O)[C@@H]2CCCN2C(=O)[C@@H](Cc2ccccc2)NC1=O` [Tyrothricin], active: 2.8. In the case of `Nc1ccc2cc3ccc(N)cc3nc2c1` [Proflavine Hemisulfate] it was inactive: 2.47; in that of `CC(=O)Nc1ncc([N+](=O)[O-])s1` [Nithiamide], active: 2.93; in that of `CCCCCCCCCCCCCCCC(=O)O[C@@H]1[C@@H](O)[C@@H](O)[C@@H]([C@H](NC(=O)[C@@H]2C[C@@H](CCC)CN2C)[C@H](C)Cl)O[C@@H]1SC` [Clindamycin Palmitate Hydrochloride], inactive: 2.13. In the case of `Nc1ccc(S(=O)(=O)Nc2ccnn2-c2ccccc2)cc1` [Sulfaphenazole], the Mahalanobis distance was inactive: 1.74. As for `CNCC(O)c1cccc(O)c1` [L-phenylephrine], the figure is active: 2.59; as for `CO/N=C(\C(=O)N[C@@H]1C(=O)N2C(C(=O)O)=C(COC(N)=O)CS[C@H]12)c1ccco1` [Cefuroxime], active: 3.04. As for `CCC(=O)c1c(O)cc(O)cc1O` [Flopropione], the figure is active: 3.29. As for `C1CCN2C[C@@H]3C[C@@H](CN4CCCC[C@@H]34)[C@H]2C1` [Sparteine Sulfate], the figure is inactive: 1.53; as for `O=C1C2CC3CC1CC(O)(C3)C2` [Idramantone], inactive: 1.29.

Regarding `CCN1CCN(c2cc3c(cc2F)c(=O)c(C(=O)O)cn3C2CC2)CC1` [Enrofloxacin], the Mahalanobis distance is inactive: 1.15.

For `O=C(O)COC(=O)Cc1ccccc1Nc1c(Cl)cccc1Cl` [Aceclofenac], the Mahalanobis distance is inactive: 2.4. As to `C[C@@H]1C[C@H]2[C@@H]3CCC4=CC(=O)C=C[C@]4(C)[C@@]3(F)[C@@H](O)C[C@]2(C)[C@@]1(O)C(=O)CO` [Dexamethasone], the Mahalanobis distance is inactive: 2.41. As for `CC1(C)O[C@@H]2C[C@H]3[C@@H]4CCC5=CC(=O)C=C[C@]5(C)[C@@]4(F)[C@@H](O)C[C@]3(C)[C@]2(C(=O)CO)O1` [Triamcinolone Acetonide], the figure is inactive: 1.88; as for `Cc1cnc(NC(=O)C2=C(O)c3ccccc3S(=O)(=O)N2C)s1` [Meloxicam], inactive: 1.77.

As for `COCCOC(=O)C1=C(C)NC(C)=C(C(=O)OC/C=C/c2ccccc2)C1c1cccc([N+](=O)[O-])c1` (stereo unspecified) [Cilnidipine], the Mahalanobis distance was active: 4.5. As for `CCn1nc(C(=O)O)c(=O)c2cc3c(cc21)OCO3` [Cinoxacin], the figure is inactive: 1.54. Regarding `C[C@H]1C[C@H]2[C@@H]3CCC4=CC(=O)C=C[C@]4(C)[C@@]3(F)[C@@H](O)C[C@]2(C)[C@@]1(O)C(=O)CO` [betamethasone], the Mahalanobis distance is inactive: 1.75. In the case of `CC1=Nc2ccc(Cl)cc2S(=O)(=O)N1` [Diazoxide] it was active: 4.47; in that of `Cc1ccc(Cl)c(Nc2ccccc2C(=O)O)c1Cl` [Meclofenamic Acid], inactive: 1.57; in that of `C=C1/C(=C\C=C2/CCC[C@]3(C)[C@@H]([C@H](C)/C=C/[C@@H](O)C4CC4)CC[C@@H]23)C[C@@H](O)C[C@@H]1O` [Calcipotriene], inactive: 2.14.

Take `CC(=O)c1ccc(S(=O)(=O)NC(=O)NC2CCCCC2)cc1` [Acetohexamide]: the Mahalanobis distance is inactive: 2.14. As for `COc1ccc(CN(CCN(C)C)c2ccccn2)cc1` [Pyrilamine], the figure is active: 3.7. In the case of `CCCNC(C)C(=O)Nc1ccccc1C` (stereo unspecified) [Prilocaine] it was inactive: 2.1. As for `CC(COc1ccccc1)N(CCCl)Cc1ccccc1` (stereo unspecified) [Phenoxybenzamine], the figure is inactive: 2.21; as for `Cc1nc2ccccc2n1Cc1ccc(Cl)cc1` [Chlormidazole], active: 2.88; as for `Cc1cc(=O)oc2cc(O)ccc12` [Hymecromone], inactive: 2.05. For the compound `CCCN[C@H]1CCc2nc(N)sc2C1` [Pramipexole], the Mahalanobis distance was active: 5.4.

As to `CCOC(=O)OC(C)OC(=O)[C@@H]1N2C(=O)[C@@H](NC(=O)[C@H](N)c3ccccc3)[C@H]2SC1(C)C` (stereo partly specified) [Bacampicillin Hydrochloride], the Mahalanobis distance is inactive: 2.37. In the case of `CO/N=C(\C(=O)N[C@@H]1C(=O)N2C(C(=O)O)=C(CSc3nc(=O)c(O)nn3C)CS[C@H]12)c1csc(N)n1` [Ceftriaxone Sodium Trihydrate] it was inactive: 2.34; in that of `CC(C)(C)NC[C@H](O)COc1nsnc1N1CCOCC1` [Timolol Maleate], inactive: 1.68; in that of `CC(C)(C)NC[C@H](O)COc1nsnc1N1CCOCC1` [Timolol], inactive: 1.37. In the case of `NCCCC[C@H](N[C@@H](CCc1ccccc1)C(=O)O)C(=O)N1CCC[C@H]1C(=O)O` [Lisinopril] it was inactive: 1.88; in that of `Nc1nc(Cl)nc2c1ncn2[C@@H]1O[C@H](CO)[C@@H](O)[C@@H]1F` [Clofarabine], inactive: 1.23. In the case of `O=C1CN2Cc3c(ccc(Cl)c3Cl)N=C2N1` [Anagrelide Hydrochloride] it was inactive: 1.47; in that of `CC[C@H]1OC(=O)[C@H](C)[C@@H](O[C@H]2C[C@@](C)(OC)[C@@H](O)[C@H](C)O2)[C@H](C)[C@@H](O[C@@H]2O[C@H](C)C[C@H](N(C)C)[C@H]2O)[C@](C)(O)C[C@@H](C)/C(=N\OCOCCOC)[C@H](C)[C@@H](O)[C@]1(C)O` [Roxithromycin], inactive: 1.4. As to `C=C1CC[C@H](O)C/C1=C/C=C1\CCC[C@]2(C)[C@@H]([C@H](C)CCCC(C)(C)O)CC[C@@H]12` [Calcifediol], the Mahalanobis distance was inactive: 2.39. In the case of `CC(=O)N[C@@H](CC(C)C)C(=O)O` [Acetyl-l-leucine] it was inactive: 1.35.

For the compound `Nc1nc(=O)c2nc(CNc3ccc(C(=O)N[C@@H](CCC(=O)O)C(=O)O)cc3)cnc2[nH]1` [Folic Acid], the Mahalanobis distance is inactive: 1.89. In the case of `CC(C)C[C@H](NC(=O)[C@@H](Cc1c[nH]c2ccccc12)NC(=O)[C@H](Cc1ccc(O)cc1)NC(=O)[C@H](CO)NC(=O)[C@H](Cc1c[nH]c2ccccc12)NC(=O)[C@H](Cc1c[nH]cn1)NC(=O)[C@@H]1CCC(=O)N1)C(=O)N[C@@H](CCCNC(=N)N)C(=O)N1CCC[C@H]1C(=O)NCC(N)=O` [Triptorelin] it was inactive: 2.08; in that of `NC(CO)(CO)CO` [Tromethamine], active: 2.52.

For `CN(C)CCN(Cc1cccs1)c1ccccn1` [Methapyrilene], the Mahalanobis distance is inactive: 1.71.

On to `NC(=O)N1c2ccccc2C=Cc2ccccc21` [Carbamazepine], for which the Mahalanobis distance is inactive: 1.89. As for `CO[C@H]1/C=C/O[C@@]2(C)Oc3c(C)c(O)c4c(c3C2=O)C2=NC3(CCN(CC(C)C)CC3)NC2=C(NC(=O)/C(C)=C\C=C\[C@H](C)[C@H](O)[C@@H](C)[C@@H](O)[C@@H](C)[C@H](OC(C)=O)[C@@H]1C)C4=O` [Rifabutin], the figure is inactive: 2.02.

(Values after the supplement of paper PMC7752906.)
